PubChem BioAssay AID1259254, NCATS, 2017

- Test: 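Finding genes that stop cells copying their DNA twice in one cycle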 (primary screen)
- Cell system: human HCT116 colorectal cancer cells
- Reagents: single siRNA against human genes
- Timing: 3 days
- Detection: 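Imaged Hoechst DNA stain sorts each cell into a cycle phase by DNA amount; per plate, G2 fraction set to 0% for non-targeting and 100% for GMNN siRNA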
- Reading the numbers: G2 robust z-score: higher = more G2 cells, more excess DNA replication
- Rule for the call: 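An siRNA counts as active if its G2 robust z-score lies at least 5 MADs above the screen median; here such calls match roughly 38% of GMNN control or more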
The whole screen tested about 59,000 reagents; this is a random part of them. About 1,550 of all reagents (2.6%) were called active. 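G2 share is only a proxy for re-replication; each gene was hit by three separate siRNAs, and active genes were retested.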 The numbers tell different reagents against one gene apart. Not all columns of the deposit are shown. Not stated in the record: the amount of reagent.

| gene knocked down | siRNA no. | G2 robust z-score | activity call |
| --- | --- | --- | --- |
| TNFRSF10C (GeneID 8794) | 1 | 3.83 | inactive |
| TNFRSF10C (GeneID 8794) | 2 | 4.97 | inactive |
| TNFRSF10C (GeneID 8794) | 3 | -0.428 | inactive |
| ARHGAP22 (GeneID 58504) | 1 | -0.922 | inactive |
| ARHGAP22 (GeneID 58504) | 2 | -0.0592 | inactive |
| ARHGAP22 (GeneID 58504) | 3 | 0.804 | inactive |
| HSD17B10 (GeneID 3028) | 1 | -0.326 | inactive |
| HSD17B10 (GeneID 3028) | 2 | 3.01 | inactive |
| HSD17B10 (GeneID 3028) | 3 | 2.71 | inactive |
| SACS (GeneID 26278) | 1 | -0.359 | inactive |
| SACS (GeneID 26278) | 2 | 0.616 | inactive |
| SACS (GeneID 26278) | 3 | -0.182 | inactive |
| PIWIL2 (GeneID 55124) | 1 | 0.731 | inactive |
| PIWIL2 (GeneID 55124) | 2 | 1.25 | inactive |
| PIWIL2 (GeneID 55124) | 3 | 1.03 | inactive |
| H1-6 (GeneID 3010) | 1 | -0.0437 | inactive |
| H1-6 (GeneID 3010) | 2 | 0.484 | inactive |
| H1-6 (GeneID 3010) | 3 | -0.854 | inactive |
| IFT88 (GeneID 8100) | 1 | -0.775 | inactive |
| IFT88 (GeneID 8100) | 2 | 2.5 | inactive |
| IFT88 (GeneID 8100) | 3 | -0.758 | inactive |
| AIPL1 (GeneID 23746) | 1 | 0.436 | inactive |
| AIPL1 (GeneID 23746) | 2 | 6.44 | active |
| AIPL1 (GeneID 23746) | 3 | -1.1 | inactive |
| DENND10 (GeneID 404636) | 1 | 1.3 | inactive |
| DENND10 (GeneID 404636) | 2 | 0.944 | inactive |
| DENND10 (GeneID 404636) | 3 | 2.67 | inactive |

Targets listed so far whose gene name starts with P or p:
| gene knocked down | siRNA no. | G2 robust z-score | activity call |
| --- | --- | --- | --- |
| PIWIL2 (GeneID 55124) | 1 | 0.731 | inactive |
| PIWIL2 (GeneID 55124) | 2 | 1.25 | inactive |
| PIWIL2 (GeneID 55124) | 3 | 1.03 | inactive |

Next results follow.
| gene knocked down | siRNA no. | G2 robust z-score | activity call |
| --- | --- | --- | --- |
| USP34 (GeneID 9736) | 1 | -0.507 | inactive |
| USP34 (GeneID 9736) | 2 | 1.73 | inactive |
| USP34 (GeneID 9736) | 3 | -0.367 | inactive |
| IRF8 (GeneID 3394) | 1 | 0.0899 | inactive |
| IRF8 (GeneID 3394) | 2 | -0.0794 | inactive |
| IRF8 (GeneID 3394) | 3 | 1.97 | inactive |
| VAMP8 (GeneID 8673) | 1 | 0.727 | inactive |
| VAMP8 (GeneID 8673) | 2 | -0.221 | inactive |
| VAMP8 (GeneID 8673) | 3 | 0.216 | inactive |
| BMP4 (GeneID 652) | 1 | 3.95 | inactive |
| BMP4 (GeneID 652) | 2 | -0.252 | inactive |
| BMP4 (GeneID 652) | 3 | -0.897 | inactive |
| BICD1 (GeneID 636) | 1 | 3.24 | inactive |
| BICD1 (GeneID 636) | 2 | -0.842 | inactive |
| BICD1 (GeneID 636) | 3 | -0.241 | inactive |
| STAMBP (GeneID 10617) | 1 | 0.309 | inactive |
| STAMBP (GeneID 10617) | 2 | -0.704 | inactive |
| STAMBP (GeneID 10617) | 3 | 0.0632 | inactive |
| CEP15 (GeneID 57415) | 1 | 2.39 | inactive |
| CEP15 (GeneID 57415) | 2 | -0.208 | inactive |
| CEP15 (GeneID 57415) | 3 | 0.605 | inactive |
